For this experiment, the target named is T1, CEP44-Flag (siRNA-resistant CEP44 cDNA, tetracycline-inducible, in RPE1 cells) (human) (UniProt Q9C0F1).
T1 sequence: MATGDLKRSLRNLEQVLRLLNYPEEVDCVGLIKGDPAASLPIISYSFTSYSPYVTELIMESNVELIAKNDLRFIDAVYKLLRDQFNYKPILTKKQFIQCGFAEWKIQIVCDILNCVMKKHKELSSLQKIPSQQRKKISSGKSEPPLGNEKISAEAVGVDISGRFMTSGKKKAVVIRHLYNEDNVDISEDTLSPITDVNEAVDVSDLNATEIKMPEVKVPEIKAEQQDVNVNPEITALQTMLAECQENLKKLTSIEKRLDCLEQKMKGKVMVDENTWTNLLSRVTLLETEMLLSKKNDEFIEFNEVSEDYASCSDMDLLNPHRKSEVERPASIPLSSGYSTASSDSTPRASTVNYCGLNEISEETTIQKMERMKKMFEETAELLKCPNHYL
In words: affinity purification with mass spectrometry; Anti-FLAG M2 beads; lysate of 30 x 10^6 RPE1 cells expressing CEP44-Flag (doxycycline); lysis in 150 mM NaCl, 10 mM Tris-Cl, 0.5 mM EDTA, 0.5% NP-40, Benzonase, pH 7.5; eluted with 3X FLAG peptide; control: RPE1 Tet-on wild type cells; n = 1.

By UniProt entry, the sequences of proteins in these tests, tags left out.
UniProt Q9C0D2: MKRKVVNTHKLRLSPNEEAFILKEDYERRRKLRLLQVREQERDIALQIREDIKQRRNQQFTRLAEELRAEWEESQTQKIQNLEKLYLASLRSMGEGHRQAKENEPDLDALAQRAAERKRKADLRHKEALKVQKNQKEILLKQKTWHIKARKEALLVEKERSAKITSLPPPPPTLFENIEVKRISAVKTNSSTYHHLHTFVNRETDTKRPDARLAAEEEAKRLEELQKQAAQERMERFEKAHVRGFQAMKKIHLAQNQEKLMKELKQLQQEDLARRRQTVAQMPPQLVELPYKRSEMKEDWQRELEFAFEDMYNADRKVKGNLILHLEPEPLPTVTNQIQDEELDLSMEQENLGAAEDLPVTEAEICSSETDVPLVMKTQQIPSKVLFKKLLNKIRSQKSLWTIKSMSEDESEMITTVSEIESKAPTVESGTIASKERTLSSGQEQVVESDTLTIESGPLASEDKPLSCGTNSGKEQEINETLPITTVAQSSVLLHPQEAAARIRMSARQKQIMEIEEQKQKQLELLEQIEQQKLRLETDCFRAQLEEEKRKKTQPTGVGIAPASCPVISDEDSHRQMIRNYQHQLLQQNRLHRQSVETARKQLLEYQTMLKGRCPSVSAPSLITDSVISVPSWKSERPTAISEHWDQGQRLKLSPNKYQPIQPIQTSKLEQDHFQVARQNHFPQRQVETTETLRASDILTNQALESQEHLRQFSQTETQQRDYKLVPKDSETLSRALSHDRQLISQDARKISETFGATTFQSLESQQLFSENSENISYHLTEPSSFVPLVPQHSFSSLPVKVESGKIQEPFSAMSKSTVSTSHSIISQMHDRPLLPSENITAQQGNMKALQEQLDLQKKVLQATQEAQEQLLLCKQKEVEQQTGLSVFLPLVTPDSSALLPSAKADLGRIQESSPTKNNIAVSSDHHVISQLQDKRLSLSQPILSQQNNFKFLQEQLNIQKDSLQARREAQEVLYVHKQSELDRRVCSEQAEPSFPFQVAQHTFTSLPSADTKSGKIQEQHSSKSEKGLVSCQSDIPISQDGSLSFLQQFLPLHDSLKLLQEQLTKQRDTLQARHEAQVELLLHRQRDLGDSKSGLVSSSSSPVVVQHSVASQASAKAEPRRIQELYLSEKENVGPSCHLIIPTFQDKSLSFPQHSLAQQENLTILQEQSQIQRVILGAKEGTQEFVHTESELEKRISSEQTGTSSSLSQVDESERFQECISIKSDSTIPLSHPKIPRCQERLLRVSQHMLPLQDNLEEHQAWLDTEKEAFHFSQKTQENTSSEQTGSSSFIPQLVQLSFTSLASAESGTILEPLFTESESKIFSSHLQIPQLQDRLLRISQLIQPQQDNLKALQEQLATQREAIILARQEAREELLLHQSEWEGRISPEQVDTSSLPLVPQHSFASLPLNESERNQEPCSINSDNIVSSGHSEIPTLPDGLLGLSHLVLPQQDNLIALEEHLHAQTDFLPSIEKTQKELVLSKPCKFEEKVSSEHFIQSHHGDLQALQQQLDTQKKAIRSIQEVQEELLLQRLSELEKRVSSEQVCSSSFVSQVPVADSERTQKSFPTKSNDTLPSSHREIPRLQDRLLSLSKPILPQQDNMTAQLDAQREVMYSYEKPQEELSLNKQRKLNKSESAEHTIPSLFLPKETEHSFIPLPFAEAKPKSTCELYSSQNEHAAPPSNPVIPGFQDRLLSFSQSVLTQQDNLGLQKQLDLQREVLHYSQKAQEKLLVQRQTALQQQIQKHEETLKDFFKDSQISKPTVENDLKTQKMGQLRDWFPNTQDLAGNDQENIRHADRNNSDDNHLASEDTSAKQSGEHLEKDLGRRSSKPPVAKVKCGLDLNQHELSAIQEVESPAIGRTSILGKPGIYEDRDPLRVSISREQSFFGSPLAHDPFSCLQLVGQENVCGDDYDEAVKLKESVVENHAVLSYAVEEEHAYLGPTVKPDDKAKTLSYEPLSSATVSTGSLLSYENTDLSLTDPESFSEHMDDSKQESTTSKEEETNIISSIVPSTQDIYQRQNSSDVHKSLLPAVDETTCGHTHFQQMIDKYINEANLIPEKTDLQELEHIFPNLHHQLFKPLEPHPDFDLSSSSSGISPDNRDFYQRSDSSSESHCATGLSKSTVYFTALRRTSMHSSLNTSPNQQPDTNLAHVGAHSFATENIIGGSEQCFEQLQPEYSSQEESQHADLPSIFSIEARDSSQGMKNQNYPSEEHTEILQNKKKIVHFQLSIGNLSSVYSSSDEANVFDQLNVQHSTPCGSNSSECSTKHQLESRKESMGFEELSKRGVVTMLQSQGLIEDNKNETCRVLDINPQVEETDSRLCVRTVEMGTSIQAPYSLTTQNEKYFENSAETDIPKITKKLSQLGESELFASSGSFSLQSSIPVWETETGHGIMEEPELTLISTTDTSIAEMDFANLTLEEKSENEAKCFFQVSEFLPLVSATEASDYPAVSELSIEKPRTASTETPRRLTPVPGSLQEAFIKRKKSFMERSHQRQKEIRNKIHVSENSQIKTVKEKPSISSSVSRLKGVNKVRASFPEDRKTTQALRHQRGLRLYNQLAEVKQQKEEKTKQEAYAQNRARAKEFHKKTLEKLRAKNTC

These are yes or no findings as the source states them, for the method shown. In cells and extracts the contact can be indirect. A yes stands for co-enrichment or nearness to the bait. Other partners may have been found. A no says only that the protein was not detected with the bait. Tags and fused reporters may be left off the sequences shown.

In the case of “CEP295 (endogenous, RPE1 cells) (from UniProt Q9C0D2 1-2601)”, the binding entry is recorded as “no binding”.
